Source: article doi:10.1101/134981
These are yes or no findings as the source states them, for the method shown. Some binding calls cover weakened binding; strength is not graded here.

Assays:
[1] = target: ZBTB18 A502T (human) (UniProt Q99592); assay: two-hybrid
[2] = target: ZBTB18 wild-type (human) (UniProt Q99592); assay: two-hybrid

binding [1]: no binding
binding [2]: binds
Substance: CTBP2 (from UniProt P56545 1-445)
